Test results taken from PubChem BioAssay AID1671190 (National Center for Advancing Translational Sciences (NCATS), 2021).
In all, about 580,000 compounds went through this assay and about 6,100 (1.1%) were called active. This list was built around the results that the source calls inconclusive (neither active nor inactive); the mix of calls is not that of the screen. The call rests on the fitted dose curve; in most records, active means well fitted inhibition curve with a large enough effect; inconclusive means small, poorly fitted or top-dose-only effect, or another doubt; inactive means no such curve, though single readings can be large or run the other way. Where the call is inconclusive, the potency comes from a doubtful curve fit.

Sequences of proteins named here, by UniProt entry; tags and fusion partners are left off. A change or cut given only in a name is not applied to a line headed by its entry.
UniProt P18054: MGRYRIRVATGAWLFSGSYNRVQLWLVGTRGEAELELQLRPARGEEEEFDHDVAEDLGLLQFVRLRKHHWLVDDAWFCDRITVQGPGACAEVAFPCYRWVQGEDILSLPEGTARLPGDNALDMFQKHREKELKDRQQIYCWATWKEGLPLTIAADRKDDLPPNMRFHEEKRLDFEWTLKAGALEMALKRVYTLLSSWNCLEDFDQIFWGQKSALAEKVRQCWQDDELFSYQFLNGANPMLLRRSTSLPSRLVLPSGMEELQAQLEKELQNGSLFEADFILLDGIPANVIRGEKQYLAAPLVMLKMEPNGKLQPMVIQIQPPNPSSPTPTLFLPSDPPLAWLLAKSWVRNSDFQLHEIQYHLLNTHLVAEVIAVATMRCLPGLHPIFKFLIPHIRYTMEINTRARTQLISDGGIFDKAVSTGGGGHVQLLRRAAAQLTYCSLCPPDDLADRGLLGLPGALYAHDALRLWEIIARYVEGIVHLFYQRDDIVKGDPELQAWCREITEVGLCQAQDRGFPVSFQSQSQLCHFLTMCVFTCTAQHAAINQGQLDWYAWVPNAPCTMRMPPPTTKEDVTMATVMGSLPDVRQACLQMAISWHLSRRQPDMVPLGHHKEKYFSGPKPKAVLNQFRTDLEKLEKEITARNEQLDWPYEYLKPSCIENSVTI

target: Polyunsaturated fatty acid lipoxygenase ALOX12 (Homo sapiens) (UniProt P18054); assay: Primary qHTS assay for inhibitors of human arachidonate 12S-lipoxygenase (ALOX12): Round 2; settings: purified 12hLO, xylenol orange hydroperoxide absorbance; activity change, negative = inhibition: at 108 µM (top of the series) unless noted
How it was run: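 Purified human 12hLO at 150 nM in 25 mM Hepes, 0.01% Triton X-100, pH 7.0, preincubated 15 min at room temperature with compound. Reaction started with 40 uM arachidonic acid, 30 min at room temperature. Hydroperoxide measured by Fe-xylenol orange, 573/405 nm absorbance ratio.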
On the % scale 0 is the no-effect control and ±100 the full control effect; potency means the concentration at half of the fitted maximal effect.

SMILES	Potency	activity change, negative = inhibition
CC1(C(=O)NS(=O)(=O)c2cccc(C#N)c2)CCN1C(=O)C1(c2ccccc2)CC1 (configuration not stated)	inconclusive: 7.08 µM [inhibitor, full curve]	–
COc1ccccc1N1CCN(S(=O)(=O)CCNC(=O)Cc2ccc(Cl)cc2)CC1	inconclusive: 79.4 µM [inhibitor, partial curve, poor fit]	–
COc1cc2cc(C(=O)N[C@@H](C)C(=O)Nc3ccc4c(c3)OCO4)[nH]c2c(OC)c1OC	inconclusive: 56.2 µM [inhibitor, partial curve, poor fit]	–
C[C@]12c3[nH]c4cc(-c5ccco5)ccc4c3CCN1C(=O)[C@@H](CC(=O)NCCC1=CCCCC1)C[C@@H]2C(=O)N1CCCCC1	inconclusive: 25.1 µM [inhibitor, partial curve]	–
CC(=O)N1N=C(c2cc(Cl)ccc2Cl)CC1c1ccc2nccnc2c1 (configuration not stated)	inconclusive: 50.1 µM [inhibitor, partial curve, poor fit]	–
C=CCOc1ccccc1NC(=O)Cc1ccccc1	–	inactive: 9.56%
COc1cccc(C(=O)NCC2(c3ccc(OC)c(OC)c3)CCCC2)c1	inconclusive: 100 µM [inhibitor, single point]	–
CSc1ccccc1C(=O)Nc1ccc(C)cc1C	–	inactive: -6.65%
CSc1cccc(C(=O)Nc2cc(F)c(F)cc2Cl)c1	–	inactive: -3.47%
Cc1[nH]c(=O)nc(SCc2cccc(Cl)c2)c1C#N	inconclusive: 44.7 µM [inhibitor, partial curve, poor fit]	–
COCc1cc(CNC(=O)C2CCC(=O)N(Cc3ccccc3OC)C2)[nH]n1 (configuration not stated)	inconclusive: 35.5 µM [inhibitor, single point]	–
Cc1nc2cc(F)ccc2cc1C(=O)NCC1CCCCC1	inconclusive: 39.8 µM [inhibitor, single point]	–
CC(C)Cc1c2c([nH]c(=S)c1C#N)CCCC2	inconclusive: 35.5 µM [inhibitor, partial curve, poor fit]	–
CCOc1ccc(/C=N/NC(=S)NC2CC3CC2C2C=CCC32)cc1 (configuration not stated)	inconclusive: 35.5 µM [inhibitor, partial curve, poor fit]	–
COc1ccc(C(=O)Cn2c(=O)oc3cc(S(=O)(=O)N4CCOCC4)ccc32)cc1F	inconclusive: 31.6 µM [inhibitor, single point]	–
CCc1c(C(=O)OC)nnc2cc(C)nn12	inconclusive: 100 µM [inhibitor, single point]	–
CC(=O)N1CCN(C(=O)C(Cc2ccccc2)NC(=O)c2ccccc2)CC1 (configuration not stated)	–	inactive: 356%
CCOc1cccc(-c2cc(C(=O)O)c3ccccc3n2)c1	inconclusive: 39.8 µM [inhibitor, partial curve]	–
COC(=O)/C(=C1/Oc2c(C)cc(C)cc2S1)C(F)(F)F	inconclusive: 10 µM [inhibitor, full curve, poor fit]	–
Cc1ccc(CCNC(=O)c2c[nH]c3ccc(S(=O)(=O)Nc4cccc(C(F)(F)F)c4)cc3c2=O)cc1	–	inactive: -5.36%
O=C(c1ccsc1)N(Cc1ccco1)C1CC1	active: 35.5 µM	–

Quoted at random: 3 records from the list.
SMILES	Potency	activity change, negative = inhibition
COc1cc2cc(C(=O)N[C@@H](C)C(=O)Nc3ccc4c(c3)OCO4)[nH]c2c(OC)c1OC	inconclusive: 56.2 µM [inhibitor, partial curve, poor fit]	–
CCc1c(C(=O)OC)nnc2cc(C)nn12	inconclusive: 100 µM [inhibitor, single point]	–
COCc1cc(CNC(=O)C2CCC(=O)N(Cc3ccccc3OC)C2)[nH]n1 (configuration not stated)	inconclusive: 35.5 µM [inhibitor, single point]	–

Remaining list, next part:

SMILES	Potency	activity change, negative = inhibition
Cc1ccc(C)c(OCCn2cc(/C=C(\C#N)C(=O)NCC3CCCO3)c3ccccc32)c1 (configuration not stated)	–	inactive: -8.63%
CC(C)C(=O)Nc1ccc(NC(=S)NC(=O)c2ccc([N+](=O)[O-])cc2)cc1	–	inactive: -10.4%
CCn1c(C)[n+](Cc2ccccc2)c2ccc(Cl)cc21	inconclusive: 50.1 µM [inhibitor, partial curve, poor fit]	–
Cc1ccc(-c2cc(C(F)F)n3nc(C)c(Cl)c3n2)cc1C	–	inactive: -18.9%
CC(C)C[C@H]1CN([C@@H](Cc2ccc(O)cc2)CN2CCC[C@H]2CN2C(=O)C(=O)NC[C@@H]2Cc2ccccc2)C(=O)C(=O)N1CC1CCCCC1	inconclusive: 79.4 µM [inhibitor, partial curve, poor fit]	–
COc1cc(CCNC(C)=O)c(C(=O)/C=C/c2cccc(OC)c2OC)cc1OC	–	inactive: -0.138%
CCOC(=O)c1cnc(SCC(=O)Nc2ccc(C)c(Cl)c2)nc1N	–	inactive: -16%
Cc1ccc(C)c(-c2nn(CC(=O)Nc3ccccc3)c(=O)c3c2CCCC3)c1	–	inactive: -27.4%
Cn1nc(C2CCN(C(=O)Cc3ccc(Cl)cc3)CC2)[nH]c1=O	–	inactive: 27.4%
CC1(C)C(=O)Nc2ccccc2N1C(=O)COC(=O)COc1cccc(C(F)(F)F)c1	inconclusive: 22.4 µM [inhibitor, partial curve, poor fit]	–
COc1ccc(NC2=CC(c3cccc(OC)c3)N(c3ccc(OC)cc3)C2=O)cc1 (configuration not stated)	inconclusive: 44.7 µM [inhibitor, partial curve, poor fit]	–
COc1cc(CCc2ccccc2)c(C(=O)O)c(O)c1CC=C(C)C	inconclusive: 35.5 µM [inhibitor, partial curve, poor fit]	–
O=C(Nc1ccc(F)cc1)C1CCc2nc(N3CCN(C(=O)C4CCC4)CC3)sc2C1 (configuration not stated)	–	inactive: 2.52%
O=C(Nc1ccc2nc3n(c(=O)c2c1)CCCCC3)c1c(F)ccc([N+](=O)[O-])c1F	–	inactive: -8.53%
Cc1ccc(CCN2CCCCC23Cc2ccccc2CN([S+](C)(=O)[O-])C3)cc1 (configuration not stated)	inconclusive: 56.2 µM [inhibitor, partial curve]	–
CCOC(=O)c1c(S(=O)(=O)Nc2cc(Cl)ccc2OC)c(C)n(C)c1C	–	inactive: 17.3%
O=c1c2cc(Cl)ccc2[nH]c(=S)n1Cc1ccco1	inconclusive: 3.98 µM [inhibitor, full curve, poor fit]	–
CCOc1ccc2nc(C)cc(Nc3cccc([N+](=O)[O-])c3)c2c1	inconclusive: 79.4 µM [inhibitor, partial curve, poor fit]	–
COCCOC(=O)/C(=C\c1cc(C(C)(C)C)c(O)c(C(C)(C)C)c1)C(C)=O	inconclusive: 89.1 µM [inhibitor, single point]	–
O=C(O)c1ccc2c(=O)n(-c3ccccc3F)c(=S)[nH]c2c1	inconclusive: 89.1 µM [inhibitor, partial curve, poor fit]	–
COc1ccc(NC(=O)N[C@H]2[C@H](O)[C@@H](Sc3ccccc3)[C@@H]3OC[C@H]2O3)cc1	inconclusive: 28.2 µM [inhibitor, full curve]	–
